# Data taken from the supplement of paper PMC12067093, “Discovery and optimisation of a covalent ligand for TRIM25 and its application to targeted protein ubiquitination” (Chemical Science, 2025).
# Sequences of proteins named here, by UniProt entry; tags and fusion partners are left off. A change or cut given only in a name is not applied to a line headed by its entry.
# UniProt Q9P2K6: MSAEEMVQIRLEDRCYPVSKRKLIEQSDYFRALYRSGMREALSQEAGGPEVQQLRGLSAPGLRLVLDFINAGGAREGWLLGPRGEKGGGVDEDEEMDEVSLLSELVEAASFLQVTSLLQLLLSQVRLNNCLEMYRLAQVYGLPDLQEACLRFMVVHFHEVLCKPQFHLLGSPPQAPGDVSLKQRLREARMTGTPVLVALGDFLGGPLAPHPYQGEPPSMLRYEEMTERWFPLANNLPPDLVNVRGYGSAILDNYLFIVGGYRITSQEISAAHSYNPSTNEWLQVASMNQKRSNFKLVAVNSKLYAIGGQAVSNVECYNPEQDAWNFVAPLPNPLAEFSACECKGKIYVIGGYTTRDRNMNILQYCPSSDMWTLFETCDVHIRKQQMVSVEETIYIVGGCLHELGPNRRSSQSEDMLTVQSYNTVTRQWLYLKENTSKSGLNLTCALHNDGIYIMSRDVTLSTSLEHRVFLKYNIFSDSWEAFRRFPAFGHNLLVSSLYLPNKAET
# UniProt Q96JM7: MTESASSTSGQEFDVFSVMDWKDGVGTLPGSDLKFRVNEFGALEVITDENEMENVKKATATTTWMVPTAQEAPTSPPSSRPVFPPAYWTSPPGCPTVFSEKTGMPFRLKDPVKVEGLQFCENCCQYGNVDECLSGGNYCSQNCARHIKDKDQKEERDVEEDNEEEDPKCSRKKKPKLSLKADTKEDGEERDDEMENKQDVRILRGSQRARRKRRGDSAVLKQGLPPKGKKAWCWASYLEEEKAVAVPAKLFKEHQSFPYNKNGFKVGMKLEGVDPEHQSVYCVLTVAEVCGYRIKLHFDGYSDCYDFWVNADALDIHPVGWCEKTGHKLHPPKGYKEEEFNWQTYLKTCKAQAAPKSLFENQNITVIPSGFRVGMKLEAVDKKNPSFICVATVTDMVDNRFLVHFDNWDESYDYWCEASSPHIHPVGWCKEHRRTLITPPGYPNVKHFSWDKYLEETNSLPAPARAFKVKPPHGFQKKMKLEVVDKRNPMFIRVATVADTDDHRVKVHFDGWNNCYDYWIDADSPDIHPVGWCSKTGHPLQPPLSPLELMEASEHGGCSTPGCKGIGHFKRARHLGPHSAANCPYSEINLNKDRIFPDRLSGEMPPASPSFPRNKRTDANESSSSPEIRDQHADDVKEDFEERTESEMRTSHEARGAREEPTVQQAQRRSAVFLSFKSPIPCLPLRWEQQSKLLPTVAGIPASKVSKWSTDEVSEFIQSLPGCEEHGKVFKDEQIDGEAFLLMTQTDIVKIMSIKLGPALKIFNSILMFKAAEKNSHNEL
# UniProt Q99661: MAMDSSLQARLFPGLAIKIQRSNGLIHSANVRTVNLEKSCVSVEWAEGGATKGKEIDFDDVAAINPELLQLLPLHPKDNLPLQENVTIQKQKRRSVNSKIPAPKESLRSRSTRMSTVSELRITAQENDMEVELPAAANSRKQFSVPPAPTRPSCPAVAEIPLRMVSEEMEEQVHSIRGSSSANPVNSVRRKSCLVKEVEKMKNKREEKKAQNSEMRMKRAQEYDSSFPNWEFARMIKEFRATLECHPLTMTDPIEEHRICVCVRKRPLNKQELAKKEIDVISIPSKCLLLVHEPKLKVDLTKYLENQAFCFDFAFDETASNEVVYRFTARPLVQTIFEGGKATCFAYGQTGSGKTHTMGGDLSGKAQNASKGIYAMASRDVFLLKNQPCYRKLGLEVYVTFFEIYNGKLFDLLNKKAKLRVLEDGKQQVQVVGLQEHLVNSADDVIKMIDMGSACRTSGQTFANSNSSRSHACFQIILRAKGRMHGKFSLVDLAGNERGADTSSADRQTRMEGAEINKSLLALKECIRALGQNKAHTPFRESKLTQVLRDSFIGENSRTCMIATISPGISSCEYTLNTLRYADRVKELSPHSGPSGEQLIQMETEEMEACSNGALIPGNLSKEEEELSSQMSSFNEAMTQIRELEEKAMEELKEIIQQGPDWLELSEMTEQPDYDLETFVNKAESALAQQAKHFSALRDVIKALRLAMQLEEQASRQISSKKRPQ
# UniProt Q9P2J5: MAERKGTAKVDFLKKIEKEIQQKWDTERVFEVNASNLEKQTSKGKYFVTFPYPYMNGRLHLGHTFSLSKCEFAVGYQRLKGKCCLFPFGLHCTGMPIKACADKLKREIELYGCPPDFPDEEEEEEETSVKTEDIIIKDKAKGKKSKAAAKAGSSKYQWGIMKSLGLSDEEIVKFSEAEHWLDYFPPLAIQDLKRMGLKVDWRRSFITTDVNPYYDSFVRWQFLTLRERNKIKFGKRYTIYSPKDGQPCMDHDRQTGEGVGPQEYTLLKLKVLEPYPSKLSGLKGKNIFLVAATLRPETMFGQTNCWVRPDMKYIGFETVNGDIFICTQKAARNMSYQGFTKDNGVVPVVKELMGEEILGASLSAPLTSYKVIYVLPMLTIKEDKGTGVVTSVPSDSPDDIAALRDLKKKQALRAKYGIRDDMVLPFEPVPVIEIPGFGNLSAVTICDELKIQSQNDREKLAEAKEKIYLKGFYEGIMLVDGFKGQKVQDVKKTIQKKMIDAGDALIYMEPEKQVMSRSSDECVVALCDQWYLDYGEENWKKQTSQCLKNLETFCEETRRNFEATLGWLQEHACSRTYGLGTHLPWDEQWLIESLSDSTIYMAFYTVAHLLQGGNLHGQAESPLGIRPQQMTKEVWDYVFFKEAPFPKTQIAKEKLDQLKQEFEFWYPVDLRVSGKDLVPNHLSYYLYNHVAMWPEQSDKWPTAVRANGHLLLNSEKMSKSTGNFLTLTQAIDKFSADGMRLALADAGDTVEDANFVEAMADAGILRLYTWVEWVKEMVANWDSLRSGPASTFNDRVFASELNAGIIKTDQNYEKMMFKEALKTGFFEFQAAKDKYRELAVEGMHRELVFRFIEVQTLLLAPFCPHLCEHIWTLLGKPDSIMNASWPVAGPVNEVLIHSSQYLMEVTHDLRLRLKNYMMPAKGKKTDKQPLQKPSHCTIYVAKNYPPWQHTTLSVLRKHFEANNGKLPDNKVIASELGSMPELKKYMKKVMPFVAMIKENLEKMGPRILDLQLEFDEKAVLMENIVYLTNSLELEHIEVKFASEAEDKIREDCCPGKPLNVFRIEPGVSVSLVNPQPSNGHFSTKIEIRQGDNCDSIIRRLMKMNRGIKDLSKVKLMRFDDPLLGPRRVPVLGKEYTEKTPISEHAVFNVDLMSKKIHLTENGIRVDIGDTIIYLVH
# UniProt P50748: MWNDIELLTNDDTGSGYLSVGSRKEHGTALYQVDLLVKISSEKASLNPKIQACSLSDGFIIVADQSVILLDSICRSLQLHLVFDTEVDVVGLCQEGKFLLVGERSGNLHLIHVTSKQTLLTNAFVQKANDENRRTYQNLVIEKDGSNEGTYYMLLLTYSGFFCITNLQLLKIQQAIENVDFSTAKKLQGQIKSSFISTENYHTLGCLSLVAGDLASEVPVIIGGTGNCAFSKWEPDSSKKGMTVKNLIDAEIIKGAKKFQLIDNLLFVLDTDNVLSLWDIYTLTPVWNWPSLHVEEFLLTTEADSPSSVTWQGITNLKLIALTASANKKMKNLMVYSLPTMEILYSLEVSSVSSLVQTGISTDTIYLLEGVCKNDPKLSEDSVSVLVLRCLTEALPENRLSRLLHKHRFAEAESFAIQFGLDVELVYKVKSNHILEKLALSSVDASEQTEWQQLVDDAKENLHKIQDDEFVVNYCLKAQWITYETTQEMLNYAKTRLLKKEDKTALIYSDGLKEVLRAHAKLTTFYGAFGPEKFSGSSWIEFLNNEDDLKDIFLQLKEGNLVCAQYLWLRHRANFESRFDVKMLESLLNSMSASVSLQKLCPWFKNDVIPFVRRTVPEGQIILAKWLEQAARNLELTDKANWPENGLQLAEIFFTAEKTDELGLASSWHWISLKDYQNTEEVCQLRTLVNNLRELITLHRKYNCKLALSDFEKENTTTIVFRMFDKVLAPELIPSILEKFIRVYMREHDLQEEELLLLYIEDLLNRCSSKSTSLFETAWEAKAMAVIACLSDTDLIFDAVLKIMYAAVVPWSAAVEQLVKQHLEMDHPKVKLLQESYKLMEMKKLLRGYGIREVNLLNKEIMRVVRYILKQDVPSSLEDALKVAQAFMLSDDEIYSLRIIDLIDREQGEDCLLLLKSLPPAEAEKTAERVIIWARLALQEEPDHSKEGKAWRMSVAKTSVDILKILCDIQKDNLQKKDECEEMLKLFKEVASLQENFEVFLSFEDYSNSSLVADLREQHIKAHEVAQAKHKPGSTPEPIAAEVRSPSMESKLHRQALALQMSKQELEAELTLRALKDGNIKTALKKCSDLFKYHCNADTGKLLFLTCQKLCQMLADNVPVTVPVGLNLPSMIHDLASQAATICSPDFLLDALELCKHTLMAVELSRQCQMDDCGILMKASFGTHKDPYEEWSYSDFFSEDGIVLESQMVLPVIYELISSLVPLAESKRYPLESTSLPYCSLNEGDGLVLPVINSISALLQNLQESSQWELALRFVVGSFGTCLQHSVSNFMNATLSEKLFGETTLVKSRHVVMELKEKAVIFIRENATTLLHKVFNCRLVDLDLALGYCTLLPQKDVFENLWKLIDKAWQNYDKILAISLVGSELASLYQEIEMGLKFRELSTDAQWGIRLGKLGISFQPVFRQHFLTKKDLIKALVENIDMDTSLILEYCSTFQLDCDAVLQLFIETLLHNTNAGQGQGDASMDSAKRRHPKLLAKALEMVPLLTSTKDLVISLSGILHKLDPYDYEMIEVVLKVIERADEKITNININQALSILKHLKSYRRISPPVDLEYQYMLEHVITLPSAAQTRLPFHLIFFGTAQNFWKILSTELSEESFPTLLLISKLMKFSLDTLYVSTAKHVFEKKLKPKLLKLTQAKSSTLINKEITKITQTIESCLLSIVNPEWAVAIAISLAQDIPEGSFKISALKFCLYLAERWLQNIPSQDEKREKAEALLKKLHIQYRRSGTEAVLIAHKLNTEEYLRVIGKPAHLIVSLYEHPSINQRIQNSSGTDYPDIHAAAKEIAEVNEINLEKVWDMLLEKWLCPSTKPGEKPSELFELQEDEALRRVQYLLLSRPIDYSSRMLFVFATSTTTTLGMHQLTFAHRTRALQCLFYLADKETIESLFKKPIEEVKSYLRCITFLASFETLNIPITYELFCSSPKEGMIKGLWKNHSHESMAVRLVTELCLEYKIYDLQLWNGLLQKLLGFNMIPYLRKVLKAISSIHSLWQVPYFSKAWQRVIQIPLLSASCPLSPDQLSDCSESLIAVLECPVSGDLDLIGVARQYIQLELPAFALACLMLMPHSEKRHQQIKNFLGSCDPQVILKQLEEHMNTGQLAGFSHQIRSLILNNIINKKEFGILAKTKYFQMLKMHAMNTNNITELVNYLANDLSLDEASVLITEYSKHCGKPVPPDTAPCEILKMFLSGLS
# UniProt Q71RC2, whole entry, looked up: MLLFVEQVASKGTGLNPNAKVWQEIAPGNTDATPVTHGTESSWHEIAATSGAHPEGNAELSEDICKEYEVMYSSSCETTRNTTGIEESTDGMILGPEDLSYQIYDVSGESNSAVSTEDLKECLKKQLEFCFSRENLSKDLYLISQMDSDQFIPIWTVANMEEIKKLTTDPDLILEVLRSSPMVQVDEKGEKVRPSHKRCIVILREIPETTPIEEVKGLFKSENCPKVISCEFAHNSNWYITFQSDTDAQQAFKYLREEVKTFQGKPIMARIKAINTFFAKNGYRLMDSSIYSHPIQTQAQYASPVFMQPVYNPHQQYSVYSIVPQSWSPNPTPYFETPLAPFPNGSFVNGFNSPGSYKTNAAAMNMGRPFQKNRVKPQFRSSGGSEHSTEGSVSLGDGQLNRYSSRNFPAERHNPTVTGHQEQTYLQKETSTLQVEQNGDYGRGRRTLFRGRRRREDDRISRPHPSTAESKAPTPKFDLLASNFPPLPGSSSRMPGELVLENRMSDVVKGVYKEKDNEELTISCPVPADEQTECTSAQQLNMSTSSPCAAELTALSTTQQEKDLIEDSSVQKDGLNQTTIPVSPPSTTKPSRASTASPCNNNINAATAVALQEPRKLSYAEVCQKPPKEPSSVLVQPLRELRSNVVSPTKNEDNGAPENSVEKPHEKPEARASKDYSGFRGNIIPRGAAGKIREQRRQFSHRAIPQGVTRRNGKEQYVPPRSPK
# UniProt O43813, whole entry, looked up: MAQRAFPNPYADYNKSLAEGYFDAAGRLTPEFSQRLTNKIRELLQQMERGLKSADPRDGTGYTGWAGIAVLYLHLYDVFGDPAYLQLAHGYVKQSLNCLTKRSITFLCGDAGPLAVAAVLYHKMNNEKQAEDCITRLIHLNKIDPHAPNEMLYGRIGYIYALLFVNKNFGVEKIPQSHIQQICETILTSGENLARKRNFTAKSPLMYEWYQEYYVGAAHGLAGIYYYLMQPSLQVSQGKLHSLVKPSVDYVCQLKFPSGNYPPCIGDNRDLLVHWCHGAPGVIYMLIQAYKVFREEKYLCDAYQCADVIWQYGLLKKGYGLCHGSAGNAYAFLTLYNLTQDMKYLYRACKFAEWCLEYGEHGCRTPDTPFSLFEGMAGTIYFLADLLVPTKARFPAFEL
# This is one part of the list.
# Compound: CC1Cc2ccccc2N1C(=O)C1CCCN(C1)C(=O)CCl (mixture of isomers) [TRIM25 ligand 11 (diastereomer mixture)]
# Experiment: probe-labelled cysteine peptide fold change vs DMSO (competition) (log2 fold change); higher = less target engagement (more negative = stronger competition)
# Conditions: THP-1, incubation time: 4 h
# 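Note: competitive chemoproteomic profiling in live THP-1 cells with an iodoacetamide desthiobiotin (IA-DTB) probe, comparing probe-labelled peptide intensities in compound-treated cells against DMSO-treated controls.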
Target,probe-labelled cysteine peptide fold change (10 µM),probe-labelled cysteine peptide fold change (50 µM)
KLHL7_Q8IXQ5_259_TVQAEPLIQDNPECLK (UniProt Q8IXQ5),0.039,0.116
KLHL42_Q9P2K6_444_SGLNLTCALHNDGIYIMSR (UniProt Q9P2K6),0.123,0.133
L3MBTL3_Q96JM7_583_HLGPHSAANCPYSEINLNK (UniProt Q96JM7),0.0731,0.097
KMT2C_Q8NEZ4_4403_CCFCHEEGDGLTDGPAR (UniProt Q8NEZ4),0.0194,0.0926
LDHD_Q86WU2_429_EDLNASGLTGSIVGHVGDGNFHCILLVNPDDAEELGR (UniProt Q86WU2),-0.0888,-0.0226
LAMTOR2_Q9Y2Q5_76_FILMDCMEGR (UniProt Q9Y2Q5),-0.0173,0.16
LAS1L_Q9Y4W2_306_VECVLAELK (UniProt Q9Y4W2),0.0289,0.0763
KNL1_Q8NG31_638_SSSDECEEITK (UniProt Q8NG31),-0.196,-0.173
KIF2C_Q99661_473_SHACFQIILR (UniProt Q99661),-0.081,-0.125
LARS_Q9P2J5_83+84_CCLFPFGLHCTGMPIK (UniProt Q9P2J5),0.0917,-0.0459
KPNA4_O00629_417_DQVAYLIQQNVIPPFCNLLTVK (UniProt O00629),0.407,0.126
LARS_Q9P2J5_546_QTSQCLK (UniProt Q9P2J5),-0.0199,0.0402
KNTC1_P50748_911_IIDLIDREQGEDCLLLLK (UniProt P50748),0.282,0.137
KYAT3_Q6YP21_337_RMDDPECYFNSLPK (UniProt Q6YP21),0.0624,0.118
L3MBTL3_Q96JM7_389_KNPSFICVATVTDMVDNR (UniProt Q96JM7),0.101,-0.0593
LARP4_Q71RC2_76_EYEVMYSSSCETTR (UniProt Q71RC2),0.23,-0.221
KLHL36_Q8N4N3_206_ECEHDLLQAALQWLTQQPER (UniProt Q8N4N3),0.377,0.113
LARP7_Q4G0J3_438_TANREECR (UniProt Q4G0J3),-0.0364,-0.0648
LCP1_P13796_336_AECMLQQAER (UniProt P13796),-0.0301,-0.0249

# 2 entries from above, tab-delimited:
Target	probe-labelled cysteine peptide fold change (10 µM)	probe-labelled cysteine peptide fold change (50 µM)
KLHL42_Q9P2K6_444_SGLNLTCALHNDGIYIMSR (UniProt Q9P2K6)	0.123	0.133
LAS1L_Q9Y4W2_306_VECVLAELK (UniProt Q9Y4W2)	0.0289	0.0763

# (list continues)

Target,probe-labelled cysteine peptide fold change (10 µM),probe-labelled cysteine peptide fold change (50 µM)
LACTB2_Q53H82_90_DHSGGIGDICK (UniProt Q53H82),-0.195,-0.0905
KIFC1_Q9BW19_212_ACVLELEER (UniProt Q9BW19),0.0347,-0.0696
LANCL1_O43813_183_IPQSHIQQICETILTSGENLAR (UniProt O43813),0.188,0.223
KIF20B_Q96Q89_80_ELESEGCVHILDSQTVVLK (UniProt Q96Q89),0.118,0.143
"LARP1B_Q659C4_649_HSTNPPLECHVGWVMDSR, A0A3B3ISF0+Q659C4",0.123,0.0455
KIF2C_Q99661_245_ATLECHPLTMTDPIEEHR (UniProt Q99661),-0.0596,-0.0795
KTN1_Q86UP2_1105_ECMAGTSGSEEVK (UniProt Q86UP2),-0.163,-0.358
LAP3_P28838_129_AAVAAGCR (UniProt P28838),-0.0533,0.0414
KNTC1_P50748_1825_WLCPSTKPGEKPSELFELQEDEALRR (UniProt P50748),0.147,0.0685
KLHL8_Q9P2G9_590_IFAVGGHNGNAYLNTVEAFDPVLNRWELVGSVSHCR (UniProt Q9P2G9),0.358,0.161
KLHL15_Q96M94_588_LDGLQVCNLHFPDYVLDEVRR (UniProt Q96M94),0.0637,-0.157
KLHDC4_Q8TBB5_58_TQTVELPCPPPSPR (UniProt Q8TBB5),0.0743,-0.0886
KIF21A_Q7Z4S6_1603_DWVCALGVVPDHPVLLSGCR (UniProt Q7Z4S6),0.0441,-0.0516
LARS_Q9P2J5_936_PSHCTIYVAK (UniProt Q9P2J5),0.103,0.111
LARP4_Q71RC2_599_ASTASPCNNNINAATAVALQEPR (UniProt Q71RC2),-0.13,-0.457
KIF22_Q14807_575_AEDCWELQISPELLAHGR (UniProt Q14807),-0.0871,0.135
LAS1L_Q9Y4W2_169_KMPHINDCRR (UniProt Q9Y4W2),-0.358,-0.311
LAMTOR5_O43504_33_NPSIVGVLCTDSQGLNLGCR (UniProt O43504),-0.337,0.0746
LARS_Q9P2J5_248_DGQPCMDHDR (UniProt Q9P2J5),0.0762,0.0653
